## Results from one PubChem assay

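Genome-wide siRNA knockdown in TC32 Ewing sarcoma cells, comparing luciferase light from an NR0B1-promoter reporter with a CMV-promoter reporter 48 hours after transfection. Each siRNA was applied at 20 nM. A z-score of the log NR0B1-over-CMV signal, less the median of siRNAs with the same seed; more negative means a stronger specific loss of the NR0B1 reporter.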

The strongest results of the screen are mostly left out here. Sequences are the guide (antisense) strand, without overhang.

| strand | target gene | seed-corrected z-score |
|---|---|---|
| `UAACCAUUUCCACGGAUGC` | ASNS | -0.2729 |
| `UUACUGUUCCGGGUAAAGG` | ZNF883 | -0.026 |
| `AGACUGUAGGAAGUGAUCG` | RGR | -1.493 |
| `AUGUUUAGUGCUGAUAUCC` | NDEL1 | -1.62 |
| `AGAUUUCUUCGUAAAUUUG` | OTOL1 | 1.191 |
| `AACUGGAGUCUGAGGAUCG` | TCL1A | 0.01654 |
| `UAUCGAUUCAUCUUAUCAG` | WDR49 | 0.7478 |
| `UAUCGUUCUGACACCGUGC` | MROH9 | 0.5815 |
| `UCAGUCAAGAGGGAUAAGG` | DCDC1 | -0.2888 |
| `UUUCUGUGCUGUUGAGUUC` | CC2D1B | 0.03344 |
| `AAUGUGCAAAGUACGUUCC` | SEC14L1 | -1.283 |
| `UAUUCGAUCUCUUGCCUGG` | ZPBP2 | -0.6201 |
| `UCUUUCUCCUCGGUCUGUG` | CRLF2 | -0.5457 |
| `UUGGUGACAUAGAUGAUGU` | TMEM247 | 0.142 |
| `UCUGCACAGAAAGGGAUCC` | DSCR10 | -0.00547 |
| `UUCUUUGCUUGGUAUUUCC` | ERMN | 0.4848 |
| `UUAAGAUGGACAACGACUC` | U2SURP | 0.758 |
| `UCCGGAUUAUCAUCACUCG` | RUVBL1 | -0.8132 |
| `UCUAUUUGAGGUGUCUUCU` | KIAA2012 | -0.3747 |
| `AAAGAUCUCAUUAUUAUCU` | ZNF576 | -0.0815 |
| `UUCGAAUACUUUUAACUCC` | VPS13A | 0.1158 |
| `AGUAGCAUUGGUAGGGUUG` | PTP4A2 | -1.643 |
| `AUAGGACUUAAGACCAUAC` | LSM6 | 0.721 |
| `UAAAGGAGAGUAGACUUCC` | ARL14 | 0.8765 |
| `UCUUCGCCUACGAUCAUCU` | CNNM2 | 0.1146 |
| `UGUUGUACGAAUUACAGAG` | MBOAT4 | -0.3326 |
| `UGACCUGCGAUGGUAAUCG` | SH3BP1 | 1.008 |
| `AAUGAUGCAAUCGAAAUCC` | LGI1 | -0.2054 |
| `UCUGUUAUAAAUGAUCACC` | HS2ST1 | -0.03973 |
| `UGUGGAAUCACGUUCUUCC` | EXD2 | -0.7151 |
| `UGGGUAGCUGGGAAAUUCC` | CCBE1 | -0.09309 |
| `AUAAGGUCAGAAUCCAUUC` | MTO1 | -1.283 |
| `AAUUGAUCUUCUACCGUCC` | MYH13 | -0.1326 |
| `UUCGGGUAAGGAUUCGAUG` | AASDHPPT | 0.0862 |
| `UUCCUGAACUUUAAACUCC` | RAD1 | -0.1711 |
| `AUUGGUACUGUUGGCCCGC` | RPL29P23 | -0.4243 |
| `UCCUUAGUAAGCUCCCUGC` | CDCA5 | -1.676 |
| `UUCUUGAUCACGGACUGGU` | TFAP2E | -0.1445 |
| `UGUCAUUCAGUUUCAAGCC` | FAM122C | 0.1883 |
| `UUGAGUUAAUAUUAGCUUC` | TRAF3IP1 | 0.2069 |
| `UCAUAGACUGGAUUCUCUC` | RPL5P1 | -1.575 |
| `UUUCCUCUAAGACUGCCUC` | SPATA21 | -0.6365 |
| `UUGAGAUCCAUGUAGUACU` | PURA | -0.5051 |
| `UGCCCUGUUACUGUUCCUC` | CCL28 | -0.2353 |
| `UCACUGUCUAUGAACUCUU` | SCGB2A1 | -1.723 |
| `CCUCCGUUAUCCUGGAUCC` | BCL2 | 1.033 |
| `AAUGUUAUACACCCACUGG` | DCPS | 0.02118 |
| `GGAAGUUGGAGUACGUGGG` | IFITM3 | -0.7168 |
| `UCUUGAACAAUAGUGGGUG` | HCRTR1 | -0.7589 |
| `UUCGUUAACCUUUUCCAGC` | PKNOX1 | 0.8179 |
| `AAUCUUGCUACAGCAUUCC` | C1orf106 | -0.8381 |
| `ACGUAAUUCAGAAAGUUCC` | SLC7A8 | 0.3596 |
| `UAUUUCGUGGUGAAACUCC` | DCAF10 | 0.5789 |
| `AGUUCACCAAGCUAUGUCC` | HELQ | 0.4978 |
| `ACAAUGUUCACUGUAGUCC` | PSMD14 | -0.2483 |
| `UUAGAGUAUCGUCAAGUUC` | PPP2CA | -0.06607 |
| `UUCUUUAACACUUUGAGAG` | CAMK4 | -0.3467 |
| `UCGUCGAUCAUGAAAGUCU` | BARX2 | -0.5095 |
| `UUUGGUGUUCAAGCGGAUG` | PNMAL2 | 0.3847 |
| `UUCUUUACAAAGACGAAUC` | CR2 | 1.817 |
| `ACAAAUUAAAUUGUCAUCC` | PAIP1 | 0.05897 |
| `UAGCCUACCACAGCUCUCU` | AAMP | 0.04752 |
| `UUUCAGUCCUUGAAGCUCC` | LINC00330 | 0.3607 |
| `UGGGUAAAAGAAACAAUCC` | WDSUB1 | -0.2773 |
| `UGAAUAACCACAUGGUAGG` | ANTXRL | 0.01273 |
| `AGCUGAUCUGGAGUCACCC` | SLC26A10 | 1.227 |
| `UCAGUAUGCGGUUCUCUCC` | CCDC33 | -1.462 |
| `UGAGUUACCAGCGAGAUGA` | EXOSC2 | -0.3078 |
| `ACCAAUAUCAGUCUGUCCC` | PPP1R42 | 0.4448 |
| `UAUACCUCGAGCUUGUACC` | B4GALT6 | 0.2814 |
| `UAUCAUGUACUAUACGCCC` | INO80D | 0.1671 |
| `UCUAGGAAUAUAUGCUCGC` | RIOK1 | -0.7696 |
| `AAUAUACUUUGGGUUCACG` | LOXL1 | -0.7434 |
| `AUUCAUUAGACUAUCAAUC` | ODF2 | 0.6755 |
| `AAAGGUCCUCUCAACUUUG` | TTBK1 | 0.6186 |
| `UACUCGAGUUGUUUGGUCC` | MED12L | 0.02288 |
| `UUGGUCACAACAGGAUGGG` | LIMD2 | 0.2672 |
| `AAAUCGAUUCCGUGUAUUC` | ARHGAP10 | 0.4127 |
| `UUUCCGUUGAGGACAAAUC` | CES3 | -0.0165 |
| `UGAUUGUUUGGGCUUGUGG` | SP1 | 2.253 |
| `UUCGCUUUCCUUACUCACC` | FLT1 | -0.2228 |
| `UAACUGGUAAGGGCAUCGG` | POC5 | -0.5594 |

Once more, the final 8:

* AAAGGUCCUCUCAACUUUG against TTBK1 | seed-corrected z-score 0.6186
* UACUCGAGUUGUUUGGUCC against MED12L | seed-corrected z-score 0.02288
* UUGGUCACAACAGGAUGGG against LIMD2 | seed-corrected z-score 0.2672
* AAAUCGAUUCCGUGUAUUC against ARHGAP10 | seed-corrected z-score 0.4127
* UUUCCGUUGAGGACAAAUC against CES3 | seed-corrected z-score -0.0165
* UGAUUGUUUGGGCUUGUGG against SP1 | seed-corrected z-score 2.253
* UUCGCUUUCCUUACUCACC against FLT1 | seed-corrected z-score -0.2228
* UAACUGGUAAGGGCAUCGG against POC5 | seed-corrected z-score -0.5594

Source: PubChem BioAssay AID1159506 (NCATS, 2015).